Test results: doi:10.1101/280214
Results are given in words; binding and its absence hold for the method and conditions named. In cells and extracts the contact can be indirect. Some entries that bind do so weakly or less than the wild type. Sequences can lack the tags named with a protein.

How the values were obtained:
GFP::MSH-5 (C. elegans) = target: T1, GFP::MSH-5 (C. elegans) (UniProt Q19272); assay: co-IP
T1 sequence: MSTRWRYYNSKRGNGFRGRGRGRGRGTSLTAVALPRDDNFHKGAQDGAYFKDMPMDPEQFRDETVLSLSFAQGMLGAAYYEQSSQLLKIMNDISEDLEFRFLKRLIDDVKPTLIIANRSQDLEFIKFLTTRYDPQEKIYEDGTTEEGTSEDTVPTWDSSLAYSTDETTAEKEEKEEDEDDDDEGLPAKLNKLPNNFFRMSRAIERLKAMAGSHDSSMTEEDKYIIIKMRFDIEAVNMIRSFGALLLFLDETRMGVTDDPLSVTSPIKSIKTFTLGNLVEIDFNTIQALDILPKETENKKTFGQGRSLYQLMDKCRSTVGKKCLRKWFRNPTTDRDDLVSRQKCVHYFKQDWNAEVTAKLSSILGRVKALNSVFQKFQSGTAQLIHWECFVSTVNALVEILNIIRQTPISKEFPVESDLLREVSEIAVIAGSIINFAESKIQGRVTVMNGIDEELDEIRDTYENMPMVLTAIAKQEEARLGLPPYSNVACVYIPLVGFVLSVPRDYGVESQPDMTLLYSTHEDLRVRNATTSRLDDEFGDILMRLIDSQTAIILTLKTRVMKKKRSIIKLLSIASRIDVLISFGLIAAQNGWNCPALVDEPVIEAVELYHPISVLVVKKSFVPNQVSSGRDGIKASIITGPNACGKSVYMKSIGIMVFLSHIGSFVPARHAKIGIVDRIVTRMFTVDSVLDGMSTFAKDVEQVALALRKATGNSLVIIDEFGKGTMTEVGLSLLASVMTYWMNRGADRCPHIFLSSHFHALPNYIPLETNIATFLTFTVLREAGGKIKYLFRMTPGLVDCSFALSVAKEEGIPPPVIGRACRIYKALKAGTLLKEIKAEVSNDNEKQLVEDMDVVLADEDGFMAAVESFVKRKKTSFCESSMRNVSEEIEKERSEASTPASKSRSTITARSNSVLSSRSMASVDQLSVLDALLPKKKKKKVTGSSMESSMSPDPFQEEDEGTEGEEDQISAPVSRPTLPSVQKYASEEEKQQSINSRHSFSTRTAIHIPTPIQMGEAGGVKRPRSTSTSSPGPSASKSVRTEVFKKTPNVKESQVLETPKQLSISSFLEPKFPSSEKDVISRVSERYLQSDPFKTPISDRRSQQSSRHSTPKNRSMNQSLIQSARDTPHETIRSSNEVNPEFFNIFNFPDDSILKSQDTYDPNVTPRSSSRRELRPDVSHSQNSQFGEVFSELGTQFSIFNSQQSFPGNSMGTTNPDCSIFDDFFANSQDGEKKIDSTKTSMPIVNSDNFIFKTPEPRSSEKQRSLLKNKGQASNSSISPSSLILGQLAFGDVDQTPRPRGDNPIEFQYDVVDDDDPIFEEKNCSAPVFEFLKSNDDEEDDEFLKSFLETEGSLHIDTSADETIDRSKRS

GFP::SYP-3 (C. elegans) = target: T2, GFP::SYP-3 (C. elegans) (UniProt O62238); assay: co-IP
T2 sequence: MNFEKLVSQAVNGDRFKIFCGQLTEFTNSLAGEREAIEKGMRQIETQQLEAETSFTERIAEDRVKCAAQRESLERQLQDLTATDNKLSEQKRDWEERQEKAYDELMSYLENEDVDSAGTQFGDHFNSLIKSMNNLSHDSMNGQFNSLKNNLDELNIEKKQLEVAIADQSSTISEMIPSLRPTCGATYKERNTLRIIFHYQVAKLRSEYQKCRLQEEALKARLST

- binding (GFP::MSH-5 (C. elegans)): binds
- binding (GFP::SYP-3 (C. elegans)): binds
B1: BRC-1::HA (protein, UniProt B6VQ60 1-609)
chain: MADVALRITETVARLQKELKCGICCSTYKDPILSTCFHIFCRSCINACFERKRKVQCPICRSVLDKRSCRDTYQITMAVQNYLKLSEAFKKDIENMNTFKSLPPEKMFMESQMPLDITIIPENDGKRCAPDFAIPFLPVRRKRPSRPQPPSAFAEEPAEPVEPPEPATKQPVELQSRVFPLEKLKKDVETSTETYKISREELKNVDIEEYINTLRENSTEIDEIDALFQLMPTMRQFLRNNINQLMEKFHVAPPKKSEKPANRRVSFASSQDLENIKIMTASESLETPPEPIQKLAQKPEVFKSTQNLIDLNLNTAVKKPVVVASDDDEVVEDSEGELQIDEDDLANVTCATSSTTLDADRTPKAIQDDEDRIDDELSQVPKTIVCSRIHNDADEVELLSDFYHKFLSNACRFAEDVNEHTTHLVMMNSEGRSISQKSTAYLYAIARKCVIVGRQWLVDCITTGLLLSEADYTITSCSSTIPVKIPPSIGSEMGWLRSRNDEHGKLFAGRRFMILRKFTMNPYFDYKQLIELVQQCGGEILSCYENLSPEKLYIIFSKHSKAIEESKNIENLYKCDVVTMEWVLDSISEYLILPTQPYKAVDSIGCLQD
